Results are given in words; binding and its absence hold for the method and conditions named. Binding seen in cells or lysates may run through a third protein. Some results given as binding are weak or reduced against the parent protein; the word gives no strength. For some assays here: Where a sequence is shown, tags or fusion partners need not be part of it.

Sequences of proteins named here, by UniProt entry; tags and fusion partners are left off.
UniProt P58801: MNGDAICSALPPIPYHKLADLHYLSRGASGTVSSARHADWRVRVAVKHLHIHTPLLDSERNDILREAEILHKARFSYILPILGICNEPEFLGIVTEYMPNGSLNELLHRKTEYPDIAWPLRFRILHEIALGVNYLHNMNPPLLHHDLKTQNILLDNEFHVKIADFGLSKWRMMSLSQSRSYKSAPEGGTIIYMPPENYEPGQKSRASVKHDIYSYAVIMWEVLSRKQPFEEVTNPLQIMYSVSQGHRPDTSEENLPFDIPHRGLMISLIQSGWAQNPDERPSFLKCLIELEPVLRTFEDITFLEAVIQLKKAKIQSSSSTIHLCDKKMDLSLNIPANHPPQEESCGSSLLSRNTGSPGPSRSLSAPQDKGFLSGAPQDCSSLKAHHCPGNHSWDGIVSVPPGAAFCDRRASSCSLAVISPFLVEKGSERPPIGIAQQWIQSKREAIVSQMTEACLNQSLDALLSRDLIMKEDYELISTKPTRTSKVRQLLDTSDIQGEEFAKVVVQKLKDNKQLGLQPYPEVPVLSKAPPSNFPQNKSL

The target of assay [1] is T1, V5-Caspase-1 (in HEK293T) (mouse) (UniProt P29452).
T1 sequence: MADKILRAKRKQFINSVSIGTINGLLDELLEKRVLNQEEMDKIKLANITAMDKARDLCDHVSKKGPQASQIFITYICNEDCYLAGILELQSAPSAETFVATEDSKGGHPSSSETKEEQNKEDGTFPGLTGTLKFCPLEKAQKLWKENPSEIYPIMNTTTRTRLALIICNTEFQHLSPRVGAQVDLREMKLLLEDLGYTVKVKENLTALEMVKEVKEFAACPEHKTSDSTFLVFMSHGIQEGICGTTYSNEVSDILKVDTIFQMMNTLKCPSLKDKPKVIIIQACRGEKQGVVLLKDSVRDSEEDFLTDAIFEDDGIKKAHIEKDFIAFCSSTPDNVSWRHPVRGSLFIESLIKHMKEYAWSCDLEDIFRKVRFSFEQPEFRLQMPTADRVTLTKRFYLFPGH
Description: co-IP; HEK293T cells transfected with V5-Caspase-1, Flag-ASC and increasing amounts of HA-Ripk2 for 48 h; IP with anti-V5, IB with anti-Flag, anti-HA or anti-V5.

The target of assay [2] is T2, Flag-tagged Card9 (mouse) (UniProt A2AIV8).
T2 sequence: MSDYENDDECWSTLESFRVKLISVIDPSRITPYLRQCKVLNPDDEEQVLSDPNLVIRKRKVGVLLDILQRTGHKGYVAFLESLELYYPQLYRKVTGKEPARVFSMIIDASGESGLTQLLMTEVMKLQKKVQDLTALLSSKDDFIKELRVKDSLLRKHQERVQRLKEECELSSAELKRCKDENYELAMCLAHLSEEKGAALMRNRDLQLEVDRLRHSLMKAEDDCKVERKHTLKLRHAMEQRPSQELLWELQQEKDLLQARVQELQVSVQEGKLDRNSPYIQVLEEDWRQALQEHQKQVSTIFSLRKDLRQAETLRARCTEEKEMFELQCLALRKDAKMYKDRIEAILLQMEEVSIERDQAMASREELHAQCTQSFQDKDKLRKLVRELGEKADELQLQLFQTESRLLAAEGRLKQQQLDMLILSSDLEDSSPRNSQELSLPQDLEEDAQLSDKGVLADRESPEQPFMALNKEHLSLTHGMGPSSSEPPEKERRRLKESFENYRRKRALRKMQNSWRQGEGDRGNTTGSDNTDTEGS
The experiment in a line: co-IP; reciprocal Co-IP from HEK293T cells transfected with Flag-tagged Card9 and HA-tagged Ripk2; Western blot. On the technique in general: Immunoblotting shows a protein as a band on a membrane.

Assay [3] concerns the target T3, V5-Caspase-1 (in BMDMs) (mouse) (UniProt P29452).
T3 sequence: T1 sequence
Description: co-IP; BMDMs containing V5-Caspase-1 stimulated with LPS + ATP for the indicated times; IP with anti-V5, IB with anti-ASC or anti-Ripk2.

Assay [4] addresses T4, Card9 (mouse (endogenous in BMDMs)) (UniProt A2AIV8).
T4 sequence: T2 sequence
Description: co-IP; endogenous Card9 and Ripk2 in BMDMs treated with LPS; Western blot.

In assay [5] the target is T5, ASC (apoptosis associated speck-like protein containing CARD) (mouse (endogenous in BMDMs)) (UniProt Q9EPB4).
T5 sequence: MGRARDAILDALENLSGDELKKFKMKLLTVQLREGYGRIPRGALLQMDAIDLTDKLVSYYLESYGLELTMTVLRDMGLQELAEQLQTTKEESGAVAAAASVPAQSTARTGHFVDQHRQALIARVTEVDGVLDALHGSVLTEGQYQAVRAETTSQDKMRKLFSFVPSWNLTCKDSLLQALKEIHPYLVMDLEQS
The experiment in a line: co-IP; lysates of BMDMs (WT or Card9-/-; or transfected with Card9 over-expression plasmid) immunoprecipitated with anti-ASC, then immunoblot; cells unstimulated or primed with LPS 100 ng/ml 3 h, then ATP 5 mM 1 h.

Consider “HA-tagged Ripk2 (from UniProt P58801 1-539)”, for which the binding result in assay [1] and in assay [2] was “binds” throughout.
As for Ripk2 (from UniProt P58801 1-539), the binding entry in assay [3] and in assay [4] was “binds” in each case.

B1: pro-caspase-1 (protein, UniProt P29452 1-402)
chain: T1 sequence
Consider B1, for which the binding result in assay [5] was “binds”.

Values taken from PMC9135688.
